# Laboratory results: patent US8962688B2, “Method for the treatment of gastrointestinal disorders” (Sucampo AG, priority 2005, dated 2015)
# At least one structure is not confirmed: it was looked up by name or label, or the drawing left a doubt.
# Test system: total acid output
# Test: Total gastric acid output in pylorus-ligated rats
# Assay type: in vivo, rat
# Conditions: 2000 μg/kg subcutaneous; positive control; compared to saline-treated control, p<0.01
# Procedure: The study was conducted according to the method described by Wong et al (Pharmacol. Soc. 32:49-56, 1989). Each group of test animals used consisted of 6 male rats of the Crj: Wistar strain. The animals were fasted for 24 hours with free access to water. Each dose formulation of Compound 1 (13,14-dihydro-15-keto-16,16-difluoro-PGE1), saline and medium chain fatty acid triglyceride (MCT) was orally administered 30 minutes before pyloric ligation. For positive control, the animals were received pentagastrin, a known gastric acid stimulator, subcutaneously at 2000 μg/kg. Under ether anesthesia, the abdomen was opened through a midline incision, the pylorus ligated with 3-0 silk suture, and the abdomen closed. The animals were kept without diet and water thereafter. Four hours after pyloric ligation, the animals were euthanized by cervical dislocation and the abdomen opened. The gastric contents were collected into sterile centrifuge tubes, and centrifuged at 3000 rpm for 10 minutes to remove solid materials. The supernatant was collected and the volume measured. A 1 mL aliquot of each gastric fluid sample was titrated to pH 7.0 with 0.01 N sodium hydroxide using an automatic […], Co., Ltd., Japan) to determine the acidity (mEq H^+/mL) Total output of gastric acid for 4 hours was calculated
structure (smiles),measurement,value
"CSCC[C@H](NC(=O)[C@H](Cc1c[nH]c2ccccc12)NC(=O)CCNC(=O)OC(C)(C)C)C(=O)N[C@@H](CC(=O)O)C(=O)N[C@@H](Cc1ccccc1)C(N)=O [pentagastrin, reference compound]",Effect on total acid output,significant increase
